# Laboratory results from US20230181673A1, “TRI-PEPTIDES AND TREATMENT OF METABOLIC, CARDIOVASCULAR AND INFLAMMATORY DISORDERS” (Diapin Therapeutics, LLC, priority 2018, published 2023).
# Tested on: liver transcriptome
# Format: in vivo, mice
# Settings: NASH-diet; leucine 0.17 or glycine 0.33 mg/g/day
# Experimental: Library preparation and sequencing were performed by the U-M DNA Sequencing Core on a NovaSeq 6000 Sequencing System (Illumina). RNA-sequencing and pathway analyses were performed as described.
# Total RNA from mouse liver samples was extracted as described above. Library preparation and sequencing were performed by the University of Michigan DNA Sequencing Core. RNA was assessed for quality using the TapeStation (Agilent, Santa Clara, Calif.). […] Final libraries were checked for quality and quantity by TapeStation (Agilent) and qPCR using Kapa's library quantification kit for Illumina Sequencing platforms (Kapa Biosystems, KK4835). […]
# The quality of the raw Fastq files was checked through FastQC v0.11.8 (https://www.bioinformaties.babraham.ac.uk/projects/fastqc/). Trimmomatic v.0.35 was used to trim the low-quality reads with the parameters: SLIDINGWINDOW:4:20 MINLEN:25.12 The resulted high-quality reads were then mapped to the mouse reference genome (GRCm38.90) using HISAT2 v.2.1.0.13 Gene level quantification was performed using HTSeq-counts v0.6.0 based on the GRCm38.90 genome annotations.14 The R package DESeq2 was then used to identify significant differentially expressed genes. […] 16 The significance of the enrichment was determined by right-tailed Fisher's exact test followed by Benjamini-Hochberg multiple testing adjustment. […]
row,SMILES,PCA of liver gene expression profile
1,"NCC(=O)O [glycine, reference compound]",intermediate patterns
2,CC(C)C[C@H](N)C(=O)O [leucine],clustered with H2O controls
